# Results as given in PubChem BioAssay AID1439 (NMMLSC, 2008).
# Amino acid sequences for entries named in this document (tags omitted).
# UniProt P09471, whole entry, looked up: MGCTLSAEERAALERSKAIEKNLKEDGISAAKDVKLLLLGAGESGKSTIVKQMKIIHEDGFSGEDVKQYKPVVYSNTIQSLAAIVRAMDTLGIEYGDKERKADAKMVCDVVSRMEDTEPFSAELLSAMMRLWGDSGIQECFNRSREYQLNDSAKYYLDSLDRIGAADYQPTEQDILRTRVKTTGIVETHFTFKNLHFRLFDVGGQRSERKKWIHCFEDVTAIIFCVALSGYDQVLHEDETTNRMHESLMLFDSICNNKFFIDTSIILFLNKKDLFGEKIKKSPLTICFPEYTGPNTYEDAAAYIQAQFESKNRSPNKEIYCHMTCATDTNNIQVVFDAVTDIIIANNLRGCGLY
# Among all 220,000 compounds or so, about 770 (0.35%) were called active. The shares of active, inactive and inconclusive entries below differ from those in the screen. Cut-off read from the data, not from the text of the source: active = binding response below about 49% or above about 150%; inconclusive = no clear call, values can overlap the other calls; inactive = in between.
# Target: Guanine nucleotide-binding protein G(o) subunit alpha (Homo sapiens) (UniProt P09471)
# Test: RGS7-Galphao binding modulators, primary screen, biochemical, multiplexed bead flow cytometry (AID 1439);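 note: fluorescent Galphao held in activated GDP-AlF4 state binding bead-coupled RGS7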
# Conditions: at 10 µM, actives lie on both sides
row,Compound,binding response (% of control)
1,N#Cc1ccc(Cl)cc1NC(=O)COC(=O)c1ccc2c(c1)OCCO2,inactive: 115%
2,CNC(=O)NC(=O)C(C)OC(=O)c1ccc(Cl)c(S(=O)(=O)Nc2ccc(F)cc2)c1 (stereo not given),inconclusive: 117%
3,Cc1cccc(C(=O)NC(C)C(c2cccs2)N2CCOCC2)c1 (stereo not given),inconclusive: 74.7%
4,CN(C)/C=C(\C#N)C(N)=C(C#N)C#N,inconclusive: 90.4%
5,CCc1cc(C(=O)c2ccc(OC)cc2)c(NC(=O)CN2CCCCC2)s1,inconclusive: 68.9%
6,Cc1ccc(S(=O)(=O)N2CCN(C(=O)C3CCN(C(=O)c4ccccc4C)CC3)CC2)cc1C,inconclusive: 103%
7,CCCC(=O)OCC(=O)Nc1ccc2c(c1)OCO2,inconclusive: 97.5%
8,COc1cc(C(=O)NCc2nnc(SCC(=O)N3CCCc4ccccc43)o2)cc(OC)c1OC,inactive: 113%
9,O=C(c1cccs1)N1CCN(S(=O)(=O)c2cccs2)CC1,inconclusive: 95.2%
10,NNc1cc(C(=O)O)ccc1Cl,inconclusive: 136%
11,CCCCN(CCCC)CCCNC(=O)c1ccc2nc(-c3ccccc3NC(C)=O)c(=O)[nH]c2c1,inactive: 101%
12,CCOC(=O)c1ccc(NC(=O)CSc2nnc(Cn3c(=O)sc4ccccc43)n2C)cc1,active: 173% [activator]
13,COc1ccc(OC)c(-n2c(-c3ccn[nH]3)n[nH]c2=S)c1,inconclusive: 127%
14,CS/C(N)=N/C(=S)Nc1cccc(Cl)c1,inconclusive: 113%
15,Cc1cccc(Oc2nccc(C(F)(F)F)c2C(=O)Nc2ccc(F)cc2F)c1,inconclusive: 98.9%
16,CCc1ccc(/C=N/Nc2ncnc3nc[nH]c23)cc1,inconclusive: 90%
17,O=C1/C(=C/c2ccncc2)CCC/C1=C\c1ccncc1,inactive: 100%
18,CCc1nnc(NC(=O)c2ccc3nc(CC)c(CC)nc3c2)s1,inconclusive: 95.3%
19,O=C(Nc1ccc2oc(=O)ccc2c1)c1ccc(-c2ccccc2[N+](=O)[O-])o1,inconclusive: -197%
20,O=C1OC(c2cccs2)=N/C1=C/c1ccc(-c2cccc(C(=O)O)c2)o1,inconclusive: 63%
21,O=C(Nc1ccccc1N1CCOCC1)c1ccc(Cl)nc1,inconclusive: 95.1%
22,O=C1c2nc3cc(-c4ccco4)[nH]n3c(=O)c2CN1C1CCCCC1,inconclusive: 107%
23,CC1=C(C(=O)Nc2ccccn2)C(c2cn(C)nc2C)C2=C(CCCC2=O)N1 (stereo not given),inconclusive: 110%

row,Compound,binding response (% of control)
1,CN(Cc1ccccc1)S(=O)(=O)c1ccc(OCC(=O)N2CCC(C(N)=O)CC2)cc1,inconclusive: 94.4%
2,O=C(CN1CCC(O)(c2cccc(F)c2)CC1)NCCc1c[nH]c2ccccc12,inconclusive: 104%
3,CCN(Cc1ccncc1)C(=O)CSc1ccc2ccccc2c1,inconclusive: 101%
4,CCc1cc(C(=O)c2ccc(OC)cc2)c(NC(=O)CCC(=O)O)s1,inconclusive: 117%
5,Cc1ccc(NC(=O)C2CC(=O)N(Cc3ccco3)C2)cc1 (stereo not given),inconclusive: 37.4%
6,O=C(Nc1ccc(Oc2ccc(NC(=O)Nc3ccc([N+](=O)[O-])cc3)cc2)cc1)Nc1ccc([N+](=O)[O-])cc1,inconclusive: 74%
7,COc1ccc(CCNC(=O)C(=O)NCC2CCNCC2)cc1OC,inconclusive: -6.8%
8,COc1ccc(C(=O)O/N=C(/c2cccs2)C(C)(C)C)cc1,inconclusive: 103%
9,CC1(c2nnc(-c3ccccc3)o2)CC(c2cccnc2)=NO1 (stereo not given),inconclusive: 98.7%
10,O=C(Nc1cccnc1)c1cc(-c2cc(Cl)ccc2O)n[nH]1,inconclusive: 121%
11,CCn1c(C)nc2cc(C(=O)N/N=C/c3cccc(OC)c3O)ccc21,inconclusive: 93.8%
12,COC(=O)c1ccc(Oc2ccc3nncn3n2)cc1,inactive: 95%
13,COC(=O)c1cc(OC)c(OC)c(OC)c1[N+](=O)[O-],inconclusive: 111%
14,CCOc1ccc(C(=O)Nc2cc(C)c3c(=O)oc4ccccc4c3n2)cc1,inactive: 94.7%
15,Cc1c(O)c(CN(C)C)cc2c1oc(=O)c1ccccc12,inconclusive: 104%
16,C[C@H](NC(=O)c1nc[nH]c1C(=O)NCC(=O)OC(C)(C)C)C(=O)OC(C)(C)C,inconclusive: 84.7%
17,COCCN1C(=O)c2ccccc2C(C(=O)NCCN(C)C)C1c1ccc(F)cc1 (stereo not given),inactive: 93%
18,CC(=O)c1cc2c(cc1NC(=O)c1cccc(S(=O)(=O)N3CCN(C)CC3)c1)OCO2,inconclusive: 78.6%
19,Cc1cc(-c2nnc(CSc3nnc(NC(=O)c4ccc(C(C)(C)C)cc4)s3)o2)ccc1[N+](=O)[O-],inconclusive: 100%
20,COc1ccc(Br)cc1-c1nc(CCl)cs1,inactive: 108%
21,CC1(C)CCc2cc(-c3ccn(S(=O)(=O)c4ccccc4Cl)n3)ccc2O1,inconclusive: 85.6%
22,CCN(CC(=O)NC(C)(C)C)C(=O)CCl,inactive: 104%
23,Nc1ccc(Cl)cc1C(=O)OCC(=O)NC1CCS(=O)(=O)C1 (stereo not given),inconclusive: 254%

row,Compound,binding response (% of control)
1,O=C(Nc1ncc2c(n1)-c1ccccc1CC2)c1cccs1,inconclusive: 111%
2,Cc1ccnc2nc(C(=O)NCc3ccccc3)nn12,inconclusive: 87.3%
3,Cc1oc(C(C)(C)C)cc1C(=O)N1CCN(c2ccc(C(F)(F)F)cn2)CC1,inconclusive: 93.6%
4,CSc1cccc(NC(=O)c2cnn3ccccc23)c1,inconclusive: 87.3%
5,NC(=O)CC(NC(=O)Cc1cccc2ccccc12)c1ccc(NCCOc2ccccc2)c([N+](=O)[O-])c1 (stereo not given),inconclusive: 98.3%
6,CCN1CCN(C(=S)c2ccc(OCC(=O)NCc3ccccc3)cc2)CC1,active: 154% [activator]
7,CC1(C)Cc2sc3c(=O)[nH]c(=S)[nH]c3c2CO1,inconclusive: 86.8%
8,COc1ccc2c(C)cc3n[nH]c(=S)n3c2c1,inconclusive: 102%
9,COc1ccc(CNC(=O)CN(C)S(=O)(=O)c2ccc(Cl)cc2)cc1,inconclusive: 109%
10,COCCNC(=O)/C(C#N)=C/C=C/c1ccccc1[N+](=O)[O-],inconclusive: 97.2%
11,O=C(Nc1ccc([N+](=O)[O-])cc1)c1cncc(Br)c1,inconclusive: 99.8%
12,CCOC(=O)Cn1nc2sc3ccccc3n2c(=O)c1=O,inconclusive: 15.1%
13,Oc1ccccc1-c1nc(NCc2cccnc2)c2ccccc2n1,inconclusive: 101%
14,CN(C)c1cccc(C(=O)NCc2ccccc2)c1,inconclusive: 110%
15,Cn1c(=O)c2c(nc(NN=C3CCCC3)n2C)n(C)c1=O,inconclusive: 52.7%
16,O=C(NC(=S)N1CCN(c2ccc(C(F)(F)F)cc2[N+](=O)[O-])CC1)c1cccs1,inactive: 103%
17,CCOC(=O)C(NC(=O)CC)(N1CCc2ccccc2C1)C(F)(F)F (stereo not given),inactive: 95.1%
18,COc1ccc(NC(=O)CCNS(=O)(=O)c2ccc3c(c2)c(=O)n(C)c(=O)n3C)cc1,inactive: 138%
19,Cc1ccc(OCC(=O)N/N=C/c2cn(C)c3ccccc23)cc1,inconclusive: 113%
20,CCN(CC)CCCN=Cc1c(O)n(-c2c(C)cccc2C)c(=O)c2ccccc12,inconclusive: 140%
21,C/C(=N/NC(=O)c1cc(C)[nH]n1)c1ccco1,inconclusive: 138%
22,Cc1ccsc1CNC(=O)c1c(-c2ccccc2)noc1C,inconclusive: 156%
23,O=C(NCCc1cnn(-c2ccccc2)c1)c1cc(COc2c(F)cccc2F)on1,inactive: 104%

# Single entries from the list:
# For binding response (% of control), O=C1c2nc3cc(-c4ccco4)[nH]n3c(=O)c2CN1C1CCCCC1 is listed with inconclusive: 107%
# For binding response (% of control), Cc1ccnc2nc(C(=O)NCc3ccccc3)nn12 is listed with inconclusive: 87.3%
# For binding response (% of control), NNc1cc(C(=O)O)ccc1Cl is listed with inconclusive: 136%
# For binding response (% of control), CCc1ccc(/C=N/Nc2ncnc3nc[nH]c23)cc1 is listed with inconclusive: 90%

# (next part)

row,Compound,binding response (% of control)
1,COc1ccc2c(c1)NC(C)(C)C=C2C,inconclusive: 80.9%
2,CCC(C)C(NC(C)=O)C(=O)NC(=O)NC(c1ccccc1)c1ccccc1 (stereo not given),inactive: 107%
3,Cc1cc(=O)oc2ccc(OC(C)C(=O)O)cc12 (stereo not given),inactive: 98.9%
4,Cc1cc(-c2sccc2Br)nc(-n2cccc2)n1,inconclusive: 78.2%
5,S=C(Nc1ccccc1Cl)N1CCN(Cc2ccccc2)CC1,inactive: 110%
6,OC1CCN(C(=S)Nc2ccc(Oc3ccccc3)cc2)CC1,inconclusive: 97.9%
7,COc1cc(/C=N/NC(=O)Cn2cnc3c2c(=O)n(C)c(=O)n3C)cc(OC)c1OC,inconclusive: 82.5%
8,Cc1cc(-c2csc(NCc3ccccc3)n2)c(C)n1C,inconclusive: 6.95%
9,O=c1cc(N2CCCCC2)c(-c2ccccc2)nn1Cc1cccc(F)c1,inconclusive: 97.3%
10,CC(=O)Nc1ccc(C(=O)NCC(=O)OCc2c(F)cccc2Cl)cc1,inactive: 102%
11,COc1ccc(C(O)c2nc3ccccc3n2C(C)C)cc1 (stereo not given),inconclusive: 118%
12,O=C1/C(=C/c2ccccc2)SC(=S)N1N1C(=O)C2CC2C1=O (stereo not given),inconclusive: 99%
13,O=C(Nc1nc2ccc(SC(F)F)cc2s1)c1ccc(NS(=O)(=O)c2ccc(F)c(F)c2)cc1,inactive: 99.7%
14,COc1ccc(/C=C(\NC(=O)c2ccccc2)C(=O)NC2CCS(=O)(=O)C2)cc1 (stereo not given),inconclusive: 31.7%
15,CCOCCCNS(=O)(=O)c1ccc(NC(=O)C2CC(=O)N(c3ccc(C)cc3)C2)cc1 (stereo not given),inactive: 99.5%
16,COc1ccccc1NC(=O)NCCC1=CCCCC1,inactive: 99.6%
17,O=c1c2cn[nH]c2nc(SCc2c(F)cccc2F)n1-c1ccc(Cl)cc1,inactive: 100%
18,COc1ccc(NC(=O)C(=S)N2CCCC2)cc1,inconclusive: 99.2%
19,CN(C)c1ccc(/C=N/N2C(=O)c3ccccc3C2=O)cc1,inconclusive: 111%
20,Cc1ccc(CCNC(=O)C2CC(c3cc(C(F)(F)F)cc(C(F)(F)F)c3)=NO2)cc1 (stereo not given),inconclusive: 111%
21,N#CCOC(=O)/C=C/c1ccc2c(c1)OCO2,inconclusive: 106%
